Results are given in words; binding and its absence hold for the method and conditions named. Binding seen in cells or lysates may run through a third protein. Some entries that bind do so weakly or less than the wild type.
Target: T1, HSF5 (fifth member of the heat shock factor family) (mouse (endogenous in testis)) (UniProt Q5ND04)
T1 sequence: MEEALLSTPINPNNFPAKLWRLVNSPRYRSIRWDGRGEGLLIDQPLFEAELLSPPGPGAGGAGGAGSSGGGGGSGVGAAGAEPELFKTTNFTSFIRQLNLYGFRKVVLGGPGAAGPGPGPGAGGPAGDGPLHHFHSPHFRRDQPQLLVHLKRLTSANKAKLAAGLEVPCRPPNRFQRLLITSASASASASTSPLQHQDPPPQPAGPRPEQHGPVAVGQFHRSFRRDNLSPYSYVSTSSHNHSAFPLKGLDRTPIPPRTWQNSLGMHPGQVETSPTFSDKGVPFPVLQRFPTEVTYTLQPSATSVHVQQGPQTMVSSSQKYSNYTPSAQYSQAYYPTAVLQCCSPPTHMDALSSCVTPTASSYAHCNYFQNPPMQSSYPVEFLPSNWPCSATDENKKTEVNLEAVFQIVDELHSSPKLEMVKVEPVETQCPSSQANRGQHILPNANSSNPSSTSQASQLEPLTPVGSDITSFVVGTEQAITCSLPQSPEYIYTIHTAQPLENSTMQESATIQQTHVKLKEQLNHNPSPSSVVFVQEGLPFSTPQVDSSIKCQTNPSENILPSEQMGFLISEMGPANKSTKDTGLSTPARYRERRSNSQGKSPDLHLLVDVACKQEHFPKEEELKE
Assay: co-IP; co-IP from WT mouse testis lysate, detected by Western blot (Figure 7I); GAPDH as loading control

Sequences of proteins named here, by UniProt entry; tags and fusion partners are left off.
UniProt Q3TKT4: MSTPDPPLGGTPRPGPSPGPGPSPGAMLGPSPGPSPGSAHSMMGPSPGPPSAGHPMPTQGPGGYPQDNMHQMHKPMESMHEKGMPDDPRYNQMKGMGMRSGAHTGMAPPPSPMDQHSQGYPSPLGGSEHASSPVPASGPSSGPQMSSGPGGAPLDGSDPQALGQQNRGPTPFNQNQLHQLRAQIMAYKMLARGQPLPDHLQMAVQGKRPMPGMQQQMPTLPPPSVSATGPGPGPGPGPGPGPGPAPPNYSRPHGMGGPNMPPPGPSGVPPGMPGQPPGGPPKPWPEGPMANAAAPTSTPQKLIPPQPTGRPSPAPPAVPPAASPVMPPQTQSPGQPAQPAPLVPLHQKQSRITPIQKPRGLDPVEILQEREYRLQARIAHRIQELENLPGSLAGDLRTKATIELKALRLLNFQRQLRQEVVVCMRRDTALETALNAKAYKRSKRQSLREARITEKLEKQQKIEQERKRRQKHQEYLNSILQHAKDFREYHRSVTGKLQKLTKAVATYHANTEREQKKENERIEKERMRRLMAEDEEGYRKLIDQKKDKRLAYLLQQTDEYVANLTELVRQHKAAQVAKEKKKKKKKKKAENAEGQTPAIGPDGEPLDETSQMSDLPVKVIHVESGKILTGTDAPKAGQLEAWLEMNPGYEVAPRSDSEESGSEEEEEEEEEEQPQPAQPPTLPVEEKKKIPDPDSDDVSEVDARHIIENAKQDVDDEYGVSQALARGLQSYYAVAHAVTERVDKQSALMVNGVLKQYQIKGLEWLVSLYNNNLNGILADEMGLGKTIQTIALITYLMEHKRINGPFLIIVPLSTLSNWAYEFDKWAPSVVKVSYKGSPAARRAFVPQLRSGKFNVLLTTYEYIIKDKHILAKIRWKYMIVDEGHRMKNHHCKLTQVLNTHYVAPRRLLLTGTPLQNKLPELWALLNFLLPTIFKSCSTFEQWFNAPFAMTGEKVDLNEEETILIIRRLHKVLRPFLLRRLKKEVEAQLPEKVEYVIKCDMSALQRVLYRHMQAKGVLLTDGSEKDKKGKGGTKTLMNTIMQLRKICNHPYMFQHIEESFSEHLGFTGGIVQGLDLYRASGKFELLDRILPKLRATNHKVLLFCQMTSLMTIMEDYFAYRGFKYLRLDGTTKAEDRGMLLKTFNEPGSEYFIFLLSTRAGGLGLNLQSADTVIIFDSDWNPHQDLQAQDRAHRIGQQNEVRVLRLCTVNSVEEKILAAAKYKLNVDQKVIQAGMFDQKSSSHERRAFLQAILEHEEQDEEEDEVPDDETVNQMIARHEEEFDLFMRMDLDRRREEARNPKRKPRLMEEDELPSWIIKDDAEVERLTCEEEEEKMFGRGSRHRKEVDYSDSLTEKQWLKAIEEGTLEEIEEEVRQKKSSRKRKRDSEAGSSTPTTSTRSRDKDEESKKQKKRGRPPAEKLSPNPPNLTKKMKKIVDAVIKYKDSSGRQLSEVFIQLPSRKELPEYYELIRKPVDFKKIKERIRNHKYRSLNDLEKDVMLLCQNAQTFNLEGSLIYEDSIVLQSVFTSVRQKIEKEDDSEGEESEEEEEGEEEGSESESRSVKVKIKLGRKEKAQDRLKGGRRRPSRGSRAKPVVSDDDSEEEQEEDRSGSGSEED
UniProt Q91ZW3: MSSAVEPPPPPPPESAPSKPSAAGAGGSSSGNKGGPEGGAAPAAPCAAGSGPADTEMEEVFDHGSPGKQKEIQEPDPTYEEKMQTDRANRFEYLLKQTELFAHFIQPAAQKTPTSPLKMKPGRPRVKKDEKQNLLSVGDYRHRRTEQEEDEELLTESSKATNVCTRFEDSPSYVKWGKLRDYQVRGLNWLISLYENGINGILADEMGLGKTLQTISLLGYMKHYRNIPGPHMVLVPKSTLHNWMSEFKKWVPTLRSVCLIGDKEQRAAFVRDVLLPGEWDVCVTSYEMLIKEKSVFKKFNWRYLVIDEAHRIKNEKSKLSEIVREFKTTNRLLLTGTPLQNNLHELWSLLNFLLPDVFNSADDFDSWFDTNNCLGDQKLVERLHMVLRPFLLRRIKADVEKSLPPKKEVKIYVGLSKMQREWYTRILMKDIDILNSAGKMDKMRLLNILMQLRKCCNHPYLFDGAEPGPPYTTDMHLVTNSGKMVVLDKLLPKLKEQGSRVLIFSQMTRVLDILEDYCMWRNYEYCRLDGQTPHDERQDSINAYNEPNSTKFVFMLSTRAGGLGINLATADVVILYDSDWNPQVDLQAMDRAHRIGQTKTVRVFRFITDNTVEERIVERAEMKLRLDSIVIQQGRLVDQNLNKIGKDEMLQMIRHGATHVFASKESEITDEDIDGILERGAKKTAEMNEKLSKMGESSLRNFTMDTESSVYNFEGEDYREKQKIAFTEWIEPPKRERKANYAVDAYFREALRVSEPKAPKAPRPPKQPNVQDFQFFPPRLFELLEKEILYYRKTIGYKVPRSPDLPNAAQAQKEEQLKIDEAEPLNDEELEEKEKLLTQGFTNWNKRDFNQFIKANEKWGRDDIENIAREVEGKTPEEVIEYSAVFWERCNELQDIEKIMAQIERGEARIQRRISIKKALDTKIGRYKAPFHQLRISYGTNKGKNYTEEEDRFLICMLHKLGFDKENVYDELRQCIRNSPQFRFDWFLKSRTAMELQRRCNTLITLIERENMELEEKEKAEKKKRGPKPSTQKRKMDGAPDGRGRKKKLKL
UniProt O54941: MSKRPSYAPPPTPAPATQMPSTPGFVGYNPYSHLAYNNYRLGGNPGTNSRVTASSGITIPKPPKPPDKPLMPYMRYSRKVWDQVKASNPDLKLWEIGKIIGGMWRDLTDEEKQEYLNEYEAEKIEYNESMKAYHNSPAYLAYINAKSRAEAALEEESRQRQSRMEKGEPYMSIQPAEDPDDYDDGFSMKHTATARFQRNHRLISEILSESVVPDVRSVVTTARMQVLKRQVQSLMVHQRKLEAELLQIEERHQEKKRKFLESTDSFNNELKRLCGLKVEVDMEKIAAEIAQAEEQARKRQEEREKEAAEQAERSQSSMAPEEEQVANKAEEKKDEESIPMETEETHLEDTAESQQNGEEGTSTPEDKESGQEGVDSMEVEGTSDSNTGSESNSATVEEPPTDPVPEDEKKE

binding, binds:
SMARCA4 (from UniProt Q3TKT4 1-1613)
SMARCA5 (from UniProt Q91ZW3 1-1051)
SMARCE1 (from UniProt O54941 1-411)
